# PubChem BioAssay AID1259405 – NCATS | 2018
# Assay: 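Silenced genes that increase secreted GFP made by CHO cells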 (primary screen)
# System: Chinese hamster CHO-K1 ovary cells with stable secreted eGFP expression
# Reagents: single siRNA against mouse genes, 0.8 pmol siRNA per well (2 µl of 400 nM stock)
# Time to read-out: 3 days
# Measured: 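Per-well intracellular GFP measured by laser scanning cytometry, plus viability from ATP luminescence, each relative to plate median of non-targeting control wells, in %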
# Scale: GFP, % of control: higher = more GFP per well, higher productivity; viability (ATP), % of control: higher = more viable cells (more ATP)
# Rule for the call: 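Called active when intracellular GFP, relative to negative control, is at or above 120%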
# The whole screen tested about 50,000 reagents; below is an unselected part. Over the whole deposit, about 4,000 (8%) are marked active. 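Mouse siRNA library applied to hamster cells; one well for each siRNA.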 Reagents against one gene are numbered here.
target gene,reagent,"GFP, % of control","viability (ATP), % of control",Outcome
Slc50a1,1,108,124,inactive
Slc50a1,2,24.3,37.6,inactive
Slc50a1,3,45.2,51,inactive
Chordc1,1,53.6,51.5,inactive
Chordc1,2,77.3,71.9,inactive
Chordc1,3,78.8,81.2,inactive
Mob1a,1,96.2,78,inactive
Mob1a,2,79.4,68.2,inactive
Csad,1,77.3,84.3,inactive
Csad,2,41.2,45.8,inactive
Csad,3,73.2,76,inactive
Yars1,1,99.7,66.3,inactive
Yars1,2,165,143,active
Or8a1b,1,65.9,53.5,inactive
Or8a1b,2,104,39.2,inactive
Or8a1b,3,61.5,92.2,inactive
Ca3,1,85.7,103,inactive
Ca3,2,56.4,68.4,inactive
9530085L02Rik,1,109,73.4,inactive
9530085L02Rik,2,82.5,64.2,inactive
9530085L02Rik,3,53.6,68.1,inactive
Tdo2,1,98.3,100,inactive
Tdo2,2,63,48.6,inactive
Tdo2,3,45.3,105,inactive
B4galnt2,1,135,55.8,active
B4galnt2,2,87.4,74.6,inactive
Lrrc56,1,73.8,58.2,inactive
Lrrc56,2,53.1,69.7,inactive
Lrrc56,3,49.7,74.6,inactive
Metrn,1,80.8,86.3,inactive
Metrn,2,78.7,80.8,inactive
Metrn,3,78.6,60.3,inactive
Bcdin3d,1,99.4,82.6,inactive
Bcdin3d,2,69.3,50.5,inactive
Bcdin3d,3,67.1,44.3,inactive
Capn2,1,69.7,97.9,inactive
Capn2,2,50.3,63.3,inactive
Capn2,3,81.6,72.7,inactive

The list goes on, starting with the last 7 of the part before.
target gene,reagent,"GFP, % of control","viability (ATP), % of control",Outcome
Metrn,3,78.6,60.3,inactive
Bcdin3d,1,99.4,82.6,inactive
Bcdin3d,2,69.3,50.5,inactive
Bcdin3d,3,67.1,44.3,inactive
Capn2,1,69.7,97.9,inactive
Capn2,2,50.3,63.3,inactive
Capn2,3,81.6,72.7,inactive
Asb18,1,131,80.3,active
Asb18,2,65.5,87.6,inactive
Asb18,3,145,77.8,active
Col18a1,1,90.5,135,inactive
Col18a1,2,88.3,94.4,inactive
Or56a4,1,83.7,44.7,inactive
Or56a4,2,80.9,58.3,inactive
Or56a4,3,62.7,105,inactive
Vamp5,1,51.7,34,inactive
Vamp5,2,91.7,84.3,inactive
Vamp5,3,53.2,48.5,inactive
Vamp5,4,106,75.2,inactive
Vamp5,5,52.5,68.8,inactive
Vamp5,6,45.7,76.2,inactive
Gla,1,135,94.7,active
Gla,2,89.9,74.1,inactive
Gla,3,93.4,83.3,inactive
Il1rn,1,66.9,62.4,inactive
Il1rn,2,54,54,inactive
Il1rn,3,53.5,76.2,inactive
